Experimental data reported in PubChem BioAssay (NCATS).
The shares of active, inactive and inconclusive entries below differ from those in the screen. A potency beside an inconclusive call is a rough fit, not a confirmed value. Active and inactive are the calls of the source. Calls follow the shape of the dose curve; as a rule, active = well fitted cell-killing curve with a large enough effect; inconclusive = small, poorly fitted or top-dose-only effect; inactive = no such curve, though single readings can be large or run the other way. *1 amine or outer side, *2 acyl side, *3 side chain or, on linkers, in order; H or OH if unused. Where a SMILES comes first, the peptide text is derived from it. Bridges are numbered along the chain shown (N, C = ends). Roman numbers before positions name the chains, in order. [ ]: non-standard residue; d: D form. The star is where a group is joined. Actinocin(9to1) = Cc1c2oc3c(C)ccc(C(=O)[*:1])c3nc-2c(C(=O)[*:2])c(N)c1=O; NMeV = CN[CH](C(=O)O)C(C)C; Cbz = O=C(OCc1ccccc1)*; Sar = CNCC(=O)O

Experiment: Quantitative High-Throughput drug screen in 47 multiple myeloma cell lines against the NCATS MIPE library collection: JIM3_ECACC cell viability assay (AID 1918963; also: nearly all actives have a fitted effect of over 35% in size)
Settings: JIM3 myeloma viability, CellTiter-Glo ATP, 48 h; series mostly up to 45.8 µM; viability, percent of control: at the top concentration
From the text: PI: Beverly A. Mock Ph.D.
Laboratory of Cancer Biology and Genetics,
Center for Cancer Research, National Cancer Institute,
National Institute of Health, Bethesda, Maryland
Drug resistance and disease progression are common in multiple myeloma (MM) patients, underscoring the need for new therapeutic combinations. […] We hypothesized that effective combinations would reduce MYC expression and enhance p16 activity. […] These preclinical data identify potentially useful drug combinations for evaluation in drug-resistant MM and reveal potential mechanisms of combined drug sensitivity.
Described herein is the primary MIPE qHTS used to cherrypick compounds. Validated compounds were then further tested for potential synergistic activiy.
[1] Peat TJ, Gaikwad SM, Dubois W, Gyabaah-Kessie N, Zhang S, Gorjifard S, Phyo Z, Andres M, Hughitt VK, Simpson RM, Miller MA, Girvin AT, Taylor A, Williams D, D'Antonio N, Zhang Y, Rajagopalan A, Flietner E, Wilson K, Zhang X, Shinn P, Klumpp-Thomas C, McKnight C, Itkin Z, Chen L, Kazandijian D, Zhang J, Michalowski AM, Simmons JK, Keats J, Thomas CJ, Mock BA. Drug combinations identified by high-throughput screening promote cell cycle transition and upregulate Smad pathways in myeloma. Cancer Lett. 2023 Aug 1;568:216284. doi: 10.1016/j.canlet.2023.216284. Epub 2023 Jun 24. PMID: 37356470; PMCID: PMC10408729.
SEQUENCE No. (e.g., 1, 2, 3, etc.); […] (e.g., Cells, Incubation, Reagent, etc.); VALUE and DESCRIPTION.
1; Cells; 5 uL; white, solid bottom 1536-well Greiner assay plate.
2; Compounds; 23 nL; Kalypsis pin tool (Wako USA) equipped with a 1536-well pin head to transfer to the assay plates.
3; Incubation; 48 hours; 37C incubation.
4; Reagent;5uL; CellTiter Glo (Promega).
5; Detector; 425V; Luminescence; Viewlux PerkinElmer.
NOTES (numbers refer to Sequence numbers above)
1. The cell-based screening methods employed in this study were like those previously published. Briefly, the corresponding myeloma cell lines were screened in 1,536-well plates with 500 cells, 5-uL per well for inhibition of cell viability (assessed by measuring ATP levels with CellTiterGlo).
2. NCATS MIPE 4.0 library of approved and investigational drugs were added using the Kalypsis pin tool. Wells treated with DMSO only for 100% viability and media only wells for 0% viability were used as controls.
3. The assay plates were covered and incubated for 48 hours in a 37C, 5% CO2 incubator with controlled humidity.
4. After 48 hours, CellTilter-GloTM luminescent substrate mix (Promega) reagent was added to the assay plate and plates we incubated for 5 min at room temperature.
5. Signal was measured as median relative luminescence units on a ViewLux (PerkinElmer) multiplate reader.
[1] Heske CM, Davis MI, Baumgart JT, Wilson K, Gormally MV, Chen L, Zhang X, Ceribelli M, Duveau DY, Guha R, Ferrer M, Arnaldez FI, Ji J, Tran HL, Zhang Y, Mendoza A, Helman LJ, Thomas CJ. Matrix Screen Identifies Synergistic Combination of PARP Inhibitors and Nicotinamide Phosphoribosyltransferase (NAMPT) Inhibitors in Ewing Sarcoma. Clin Cancer Res. 2017 Dec 1;23(23):7301-7311. doi: 10.1158/1078-0432.CCR-17-1121. Epub 2017 Sep 12. PMID: 28899971; PMCID: PMC6636827.
Potency is read from the fitted curve at half-maximal effect.

| Structure (SMILES) | Potency | viability, percent of control |
| --- | --- | --- |
| O=C(O)COCCN1CCN(C(c2ccccc2)c2ccc(Cl)cc2)CC1 (centres undefined) | inconclusive: 0.001 µM [cytotoxic] |  |
| COC(=O)Nc1ccc(-c2nc(N3CCOCC3)c3cnn(C4CCN(Cc5cccnc5)CC4)c3n2)cc1 | active: 1.18 µM |  |
| Cc1nc2ccc(CN(C)c3ccc(C(=O)N[C@@H](CCC(=O)O)C(=O)O)s3)cc2c(=O)[nH]1 | active: 0.0935 µM |  |
| O=C(O)C[C@H](O)C[C@H](O)C=Cc1c(C2CC2)nc2ccccc2c1-c1ccc(F)cc1 | active: 14.8 µM |  |
| Cc1coc2c1C(=O)C(=O)c1c-2ccc2c(C)cccc12 | inconclusive: 16.6 µM [cytotoxic, partial curve] |  |
| CC(C)(O)CC[C@@H](O)[C@](C)(O)[C@H]1CC[C@@]2(O)C3=CC(=O)[C@@H]4C[C@@H](O)[C@@H](O)C[C@]4(C)[C@@H]3CC[C@]12C |  | inactive: 95.1% |
| COC(=O)[C@@H]1[C@H]2C[C@@H]3c4[nH]c5ccccc5c4CCN3C[C@@H]2CC[C@@H]1O |  | inactive: 130% |
| O=S(=O)(c1cccc2cnccc12)N1CCCNCC1 | inconclusive: 37.2 µM [cytotoxic, partial curve, poor fit] |  |
| Cc1c(Cn2c(C)nc3c(C(=O)O)cc(N4CCOCC4)cc32)cccc1C(F)(F)F | active: 9.35 µM |  |
| CNC(=O)c1ccccc1Sc1ccc2c(C=Cc3ccccn3)n[nH]c2c1 | inconclusive: 16.6 µM [cytotoxic, partial curve] |  |
| Cc1c2oc3c(C)ccc(C(=O)NC4C(=O)NC(C(C)C)C(=O)N5CCCC5C(=O)N(C)CC(=O)N(C)C(C(C)C)C(=O)OC4C)c3nc-2c(C(=O)NC2C(=O)NC(C(C)C)C(=O)N3CCCC3C(=O)N(C)CC(=O)N(C)C(C(C)C)C(=O)OC2C)c(N)c1=O (centres undefined) (I: TVP[Sar][NMeV] / II: TVP[Sar][NMeV]; ester I:1-I:C, II:1-II:C; linker I:N-II:N via Actinocin(9to1); configuration not given here) |  | inactive: 2.55% |
| CN(C)Cc1c(C(=O)NCCOc2ccc(C(=O)NO)cc2)oc2ccccc12 | active: 2.96 µM |  |
| COc1cc(C[C@@H](CO)[C@H](CO)Cc2ccc(O)c(OC)c2)ccc1O | active: 2.64 µM |  |
| COc1cc(OC)c(C=CS(=O)(=O)Cc2ccc(OC)c(NCC(=O)O)c2)c(OC)c1 | active: 0.209 µM |  |
| O=C(Nc1nc2cccc(-c3ccc(CN4CCS(=O)(=O)CC4)cc3)n2n1)C1CC1 | active: 18.7 µM |  |
| CCOC(=O)N1CCC(=C2c3ccc(Cl)cc3CCc3cccnc32)CC1 |  | inactive: 108% |
| NC1(Cc2ccc(Cl)cc2)CCN(c2ncnc3[nH]ccc23)CC1 | active: 2.96 µM |  |
| NNC(=O)c1ccncc1 |  | inactive: 110% |
| COc1ccc2cc3[n+](cc2c1OC)CCc1cc2c(cc1-3)OCO2 | inconclusive: 14.8 µM [cytotoxic, partial curve, poor fit] |  |
| O=C(c1ccc(F)cc1)N1CCC[C@H](c2nc(-c3ccc(F)cc3)no2)C1 | inconclusive: 10.5 µM [cytotoxic, partial curve, poor fit] |  |
| CS(=O)(=O)N1CCc2c(-c3cnc(N)nc3)nc(N3CCOCC3)nc21 | inconclusive: 0.166 µM [cytotoxic, full curve] |  |
| CC(=O)[C@H]1CC[C@H]2[C@@H]3CCC4=CC(=O)CC[C@]4(C)[C@H]3CC[C@]12C | inconclusive: 10.5 µM [cytotoxic, single point] |  |
| CC(C)C[C@@H](C=O)NC(=O)[C@H](CC(C)C)NC(=O)[C@H](CC(C)C)NC(=O)OCc1ccccc1 (Cbz-Leu-Leu-Leu-aldehyde) | active: 0.526 µM |  |
| CC(N)C12CC3CC(CC(C3)C1)C2 (centres undefined) |  | inactive: 116% |

Exported in CSV form: entries from further up.
Structure (SMILES),Potency,"viability, percent of control"
"Cc1c2oc3c(C)ccc(C(=O)NC4C(=O)NC(C(C)C)C(=O)N5CCCC5C(=O)N(C)CC(=O)N(C)C(C(C)C)C(=O)OC4C)c3nc-2c(C(=O)NC2C(=O)NC(C(C)C)C(=O)N3CCCC3C(=O)N(C)CC(=O)N(C)C(C(C)C)C(=O)OC2C)c(N)c1=O (centres undefined) (I: TVP[Sar][NMeV] / II: TVP[Sar][NMeV]; ester I:1-I:C, II:1-II:C; linker I:N-II:N via Actinocin(9to1); configuration not given here)",,inactive: 2.55%
COc1ccc2cc3[n+](cc2c1OC)CCc1cc2c(cc1-3)OCO2,"inconclusive: 14.8 µM [cytotoxic, partial curve, poor fit]",
